According to publication PMC8305389, “Tuning Photodynamic Properties of BODIPY Dyes, Porphyrins’ Little Sisters” (Molecules, 2021):
Entries after “also recorded” stand apart in the source; their conditions may differ.

Tested on: SK-MEL-28 cells
Assay: Subcellular localization by fluorescence microscopy
Assay type: cell-based, human
Conditions: SK-MEL-28, 12 h incubation with 1 μM

CC1=C(Br)C(C)=[N+]2C1=C(c1ccc(OCCCCCCCCN3C(=O)c4ccccc4C3=O)cc1)c1c(C)c(Br)c(C)n1[B-]2(F)F [4b, 2,6-Dibromo-1,3,5,7-Tetramethyl-8-{4-[8-(phthalimidyl)octyloxy]phenyl}-4,4-difluoro-4-bora-3a,4a-diaza-s-indacene]
subcellular localization (colocalized fluorescence signal): lysosomes; also recorded: adiposomes (lipid droplets)
